Experimental data taken from doi:10.1101/2025.07.04.663186.
Like-named read-outs stand apart in the source and are kept apart here. These are yes or no findings as the source states them, for the method shown. In cells and extracts the contact can be indirect. These calls come from enrichment with a bait or labelling near it, and not all partners need be listed. For some assays here: A no says only that the protein was not detected with the bait. Tags and fused reporters may be left off the sequences shown.

Protein sequences, listed by entry. Tags and fused reporters are not part of them.
UniProt Q96B97: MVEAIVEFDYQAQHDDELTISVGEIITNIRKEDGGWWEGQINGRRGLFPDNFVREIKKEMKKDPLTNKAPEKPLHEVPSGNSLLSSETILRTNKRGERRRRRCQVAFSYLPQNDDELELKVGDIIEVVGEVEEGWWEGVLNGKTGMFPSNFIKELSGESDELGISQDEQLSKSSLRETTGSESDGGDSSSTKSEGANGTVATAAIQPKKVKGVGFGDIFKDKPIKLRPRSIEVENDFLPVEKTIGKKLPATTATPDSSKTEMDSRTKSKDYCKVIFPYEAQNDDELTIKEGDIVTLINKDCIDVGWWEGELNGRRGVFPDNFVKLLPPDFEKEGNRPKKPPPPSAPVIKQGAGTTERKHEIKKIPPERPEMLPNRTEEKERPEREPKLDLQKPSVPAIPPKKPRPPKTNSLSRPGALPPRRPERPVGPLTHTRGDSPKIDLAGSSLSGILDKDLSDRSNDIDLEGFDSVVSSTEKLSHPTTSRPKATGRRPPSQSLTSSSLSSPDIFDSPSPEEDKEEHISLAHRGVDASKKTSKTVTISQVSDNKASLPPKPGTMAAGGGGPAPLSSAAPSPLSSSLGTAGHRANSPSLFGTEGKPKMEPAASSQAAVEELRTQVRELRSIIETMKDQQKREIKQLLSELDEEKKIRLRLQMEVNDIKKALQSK
UniProt Q96AC1: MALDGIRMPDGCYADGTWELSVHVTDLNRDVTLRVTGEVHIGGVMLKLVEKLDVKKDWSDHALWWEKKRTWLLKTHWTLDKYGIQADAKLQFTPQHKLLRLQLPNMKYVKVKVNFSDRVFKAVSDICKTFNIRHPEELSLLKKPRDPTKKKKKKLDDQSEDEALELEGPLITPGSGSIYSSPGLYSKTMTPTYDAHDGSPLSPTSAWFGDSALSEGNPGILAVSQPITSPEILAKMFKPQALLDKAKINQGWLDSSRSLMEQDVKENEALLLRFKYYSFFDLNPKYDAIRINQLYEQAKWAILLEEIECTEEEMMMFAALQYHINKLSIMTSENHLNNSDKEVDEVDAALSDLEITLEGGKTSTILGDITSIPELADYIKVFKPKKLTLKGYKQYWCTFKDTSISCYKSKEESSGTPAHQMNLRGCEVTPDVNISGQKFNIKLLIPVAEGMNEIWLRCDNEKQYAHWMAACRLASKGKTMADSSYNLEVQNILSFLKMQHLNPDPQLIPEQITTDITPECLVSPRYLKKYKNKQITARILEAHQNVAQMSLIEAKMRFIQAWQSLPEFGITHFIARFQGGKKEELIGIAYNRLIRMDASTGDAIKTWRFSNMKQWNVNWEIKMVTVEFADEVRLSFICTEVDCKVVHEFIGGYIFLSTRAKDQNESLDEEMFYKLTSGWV

Columns and labels:
Assay in all cases: proximity labelling
[1] = biological target: T1, myc-BirA*-MYO1E tail (aa 692-1108) (human) (UniProt Q12965)
T1 sequence: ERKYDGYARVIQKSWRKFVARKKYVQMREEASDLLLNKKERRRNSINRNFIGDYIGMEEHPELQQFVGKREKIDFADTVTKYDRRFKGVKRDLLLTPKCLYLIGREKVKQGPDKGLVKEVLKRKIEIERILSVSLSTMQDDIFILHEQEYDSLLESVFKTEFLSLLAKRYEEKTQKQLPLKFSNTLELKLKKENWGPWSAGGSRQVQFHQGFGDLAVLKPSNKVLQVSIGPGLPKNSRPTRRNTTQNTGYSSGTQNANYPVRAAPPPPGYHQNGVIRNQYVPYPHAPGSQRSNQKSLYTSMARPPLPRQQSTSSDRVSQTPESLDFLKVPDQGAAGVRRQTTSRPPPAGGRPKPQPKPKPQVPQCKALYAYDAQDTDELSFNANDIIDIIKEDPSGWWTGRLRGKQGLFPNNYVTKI

[2] = biological target: T2, myc-BirA*-MYO1F tail ΔPH (human) (UniProt O00160)
T2 sequence: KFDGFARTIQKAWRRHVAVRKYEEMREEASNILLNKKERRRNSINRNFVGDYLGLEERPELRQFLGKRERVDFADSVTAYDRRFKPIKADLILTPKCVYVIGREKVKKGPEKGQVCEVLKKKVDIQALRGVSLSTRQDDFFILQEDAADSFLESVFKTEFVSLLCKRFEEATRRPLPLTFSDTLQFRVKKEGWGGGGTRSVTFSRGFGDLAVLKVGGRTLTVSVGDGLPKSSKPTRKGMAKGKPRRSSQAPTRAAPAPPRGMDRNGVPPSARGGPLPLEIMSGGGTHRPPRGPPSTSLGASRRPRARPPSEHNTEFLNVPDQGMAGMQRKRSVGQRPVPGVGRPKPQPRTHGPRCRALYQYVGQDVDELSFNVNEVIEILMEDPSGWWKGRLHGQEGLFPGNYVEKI

[3] = biological target: T3, myc-BirA*-MYO1F tail (aa 692-1098) (human) (UniProt O00160)
T3 sequence: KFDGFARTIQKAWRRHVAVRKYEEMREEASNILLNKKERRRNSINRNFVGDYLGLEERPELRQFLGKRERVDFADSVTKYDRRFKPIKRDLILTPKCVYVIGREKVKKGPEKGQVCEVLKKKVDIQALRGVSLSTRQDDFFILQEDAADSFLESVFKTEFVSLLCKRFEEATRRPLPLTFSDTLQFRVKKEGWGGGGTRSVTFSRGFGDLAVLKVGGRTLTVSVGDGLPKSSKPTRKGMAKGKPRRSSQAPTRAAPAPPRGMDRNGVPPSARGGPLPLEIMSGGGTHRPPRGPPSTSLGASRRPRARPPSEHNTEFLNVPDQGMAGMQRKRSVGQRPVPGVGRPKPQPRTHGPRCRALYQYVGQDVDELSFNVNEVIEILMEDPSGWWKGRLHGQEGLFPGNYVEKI

[4] = biological target: T2, myc-BirA*-MYO1F tail ΔPH (human); remark: listed apart in the source
[5] = biological target: T3, myc-BirA*-MYO1F tail (aa 692-1098) (human); remark: listed apart in the source
[6] = biological target: T1, myc-BirA*-MYO1E tail (aa 692-1108) (human); remark: listed apart in the source

Row | binding [1] | binding [6] | other results | Molecule
1 | no binding |  |  | SH3KBP1, endogenous in RPE (from UniProt Q96B97 1-665)
2 |  |  | binding [2]: binds; binding [3]: binds | SH3 Domain Containing Kinase Binding Protein 1 (SH3KBP1), endogenous in U937 (from UniProt Q96B97 1-665)
3 | binds |  |  | FERMT2 (also known as kindlin-2) (from UniProt Q96AC1 1-680)
4 |  |  | binding [4]: binds; binding [5]: binds | SH3 Domain Binding Protein 2 (SH3BP2), endogenous in U937 (protein, UniProt P78314 1-561) MAAEEMHWPVPMKAIGAQNLLTMPGGVAKAGYLHKKGGTQLQLLKWPLRFVIIHKRCVYYFKSSTSASPQGAFSLSGYNRVMRAAEETTSNNVFPFKIIHISKKHRTWFFSASSEEERKSWMALLRREIGHFHEKKDLPLDTSDSSSDTDSFYGAVERPVDISLSPYPTDNEDYEHDDEDDSYLEPDSPEPGRLEDALMHPPAYPPPPVPTPRKPAFSDMPRAHSFTSKGPGPLLPPPPPKHGLPDVGLAAEDSKRDPLCPRRAEPCPRVPATPRRMSDPPLSTMPTAPGLRKPPCFRESASPSPEPWTPGHGACSTSSAAIMATATSRNCDKLKSFHLSPRGPPTSEPPPVPANKPKFLKIAEEDPPREAAMPGLFVPPVAPRPPALKLPVPEAMARPAVLPRPEKPQLPHLQRSPPDGQSFRSFSFEKPRQPSQADTGGDDSDEDYEKVPLPNSVFVNTTESCEVERLFKATSPRGEPQDGLYCIRNSSTKSGKVLVVWDETSNKVRNYRIFEKDSKFYLEGEVLFVSVGSMVEHYHTHVLPSHQSLLLRHPYGYTGPR
5 |  | binds |  | CDC42EP1 (protein, UniProt Q00587 1-391) MPGPQGGRGAATMSLGKLSPVGWVSSSQGKRRLTADMISHPLGDFRHTMHVGRGGDVFGDTSFLSNHGGSSGSTHRSPRSFLAKKLQLVRRVGAPPRRMASPPAPSPAPPAISPIIKNAISLPQLNQAAYDSLVVGKLSFDSSPTSSTDGHSSYGLDSGFCTISRLPRSEKPHDRDRDGSFPSEPGLRRSDSLLSFRLDLDLGPSLLSELLGVMSLPEAPAAETPAPAANPPAPTANPTGPAANPPATTANPPAPAANPSAPAATPTGPAANPPAPAASSTPHGHCPNGVTAGLGPVAEVKSSPVGGGPRGPAGPALGRHWGAGWDGGHHYPEMDARQERVEVLPQARASWESLDEEWRAPQAGSRTPVPSTVQANTFEFADAEEDDEVKV
6 |  | no binding |  | SH3BP2, endogenous in RPE (protein, UniProt P78314 1-561) MAAEEMHWPVPMKAIGAQNLLTMPGGVAKAGYLHKKGGTQLQLLKWPLRFVIIHKRCVYYFKSSTSASPQGAFSLSGYNRVMRAAEETTSNNVFPFKIIHISKKHRTWFFSASSEEERKSWMALLRREIGHFHEKKDLPLDTSDSSSDTDSFYGAVERPVDISLSPYPTDNEDYEHDDEDDSYLEPDSPEPGRLEDALMHPPAYPPPPVPTPRKPAFSDMPRAHSFTSKGPGPLLPPPPPKHGLPDVGLAAEDSKRDPLCPRRAEPCPRVPATPRRMSDPPLSTMPTAPGLRKPPCFRESASPSPEPWTPGHGACSTSSAAIMATATSRNCDKLKSFHLSPRGPPTSEPPPVPANKPKFLKIAEEDPPREAAMPGLFVPPVAPRPPALKLPVPEAMARPAVLPRPEKPQLPHLQRSPPDGQSFRSFSFEKPRQPSQADTGGDDSDEDYEKVPLPNSVFVNTTESCEVERLFKATSPRGEPQDGLYCIRNSSTKSGKVLVVWDETSNKVRNYRIFEKDSKFYLEGEVLFVSVGSMVEHYHTHVLPSHQSLLLRHPYGYTGPR
